We go through 2 molecules from paper PMC8363623.

Sequences of proteins named here, by UniProt entry; tags and fusion partners are left off. A change or cut given only in a name is not applied to a line headed by its entry.
UniProt Q12066: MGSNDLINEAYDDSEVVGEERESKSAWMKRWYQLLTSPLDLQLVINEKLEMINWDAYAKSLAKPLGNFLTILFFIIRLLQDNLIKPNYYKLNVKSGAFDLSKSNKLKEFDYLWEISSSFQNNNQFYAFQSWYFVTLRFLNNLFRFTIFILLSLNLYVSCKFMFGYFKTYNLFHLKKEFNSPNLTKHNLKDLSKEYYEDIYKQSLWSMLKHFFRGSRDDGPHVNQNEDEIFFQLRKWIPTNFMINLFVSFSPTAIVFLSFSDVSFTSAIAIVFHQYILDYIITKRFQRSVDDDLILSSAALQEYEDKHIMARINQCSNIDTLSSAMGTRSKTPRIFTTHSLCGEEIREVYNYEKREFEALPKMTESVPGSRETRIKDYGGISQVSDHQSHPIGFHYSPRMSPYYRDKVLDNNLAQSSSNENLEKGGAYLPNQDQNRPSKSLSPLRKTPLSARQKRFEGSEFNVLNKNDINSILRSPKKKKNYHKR

Assay [1] has as its target Nur1 C (C-terminal Nur1 region, two-hybrid fusion) (S. cerevisiae) (UniProt Q12066). The experiment in a line: two-hybrid; Gal4 AD (pGADT7) and BD (pGBKT7) fusions in PJ69a, or Y187 mated with Y2HGold; spotting on -LW and on -LWH, -LWH + 1 mM 3-aminotriazol, -LWHA, 3 days unless indicated.
Assay [2] deals with GFP-tagged SUMO^Q95P (S. cerevisiae) [SUMO: Q12306]. Description: co-IP; yeast cell lysates (50 mM Tris pH 7.5, 150 mM NaCl, 10% glycerol, 1 mM EDTA, 0.5% NP-40) on antiHA-sepharose, GFP-Trap or IgG-agarose beads, 1.5 h at 4 °C, immunoblot; cells also with cdc14-3 at 37 °C, phosphatase inhibitors, Net1 depletion, nur1Pmim, SUMO overexpression (WT, FAIA, KRall), Cdc48 mutants, STUbL deletions or I-PpoI rDNA damage.

No constants are given. Whether binding was seen depends on the method and setting. Binding can be weak; no strength is given. For some assays here: Sequences can lack the tags named with a protein. For some assays here: Binding seen in cells or lysates may run through a third protein.

B1: Cdc14 (two-hybrid fusion) (enzyme, UniProt Q00684 1-551)
chain: MRRSVYLDNTIEFLRGRVYLGAYDYTPEDTDELVFFTVEDAIFYNSFHLDFGPMNIGHLYRFAVIFHEILNDPENANKAVVFYSSASTRQRANAACMLCCYMILVQAWTPHQVLQPLAQVDPPFMPFRDAGYSNADFEITIQDVVYGVWRAKEKGLIDLHSFNLESYEKYEHVEFGDFNVLTPDFIAFASPQEDHPKGYLATKSSHLNQPFKSVLNFFANNNVQLVVRLNSHLYNKKHFEDIGIQHLDLIFEDGTCPDLSIVKNFVGAAETIIKRGGKIAVHCKAGLGRTGCLIGAHLIYTYGFTANECIGFLRFIRPGMVVGPQQHWLYLHQNDFREWKYTTRISLKPSEAIGGLYPLISLEEYRLQKKKLKDDKRVAQNNIEGELRDLTMTPPSNGHGALSARNSSQPSTANNGSNSFKSSAVPQTSPGQPRKGQNGSNTIEDINNNRNPTSHANRKVVIESNNSDDESMQDTNGTSNHYPKVSRKKNDISSASSSRMEDNEPSATNINNAADDTILRQLLPKNRRVTSGRRTTSAAGGIRKISGSIKK
With B1, in assay [1], the binding entry is listed as “binds”.

B2: Slx5 (protein, UniProt P32828 1-619)
chain: MHSDTNGRTKSNNSPSDNNPNETVILIDSDKEEDASIREANLPVRLYPDRRVGRRRDALNRFVRSDSRSRNSQRTHITASSERPDFQANNDDITIIREVGRFFGDDGPIDPSAHYVDLDQEPGSETLETPRTIQVDNTNGYLNDNGNNNESDDGLTIVEERTTRPRVTLNLPGGERLEVTATTTDIPIRRSFEFQEDLGASRRQLLRRSATRARNLFVDRSDENDEDWTDDTHNLPEAIQRARRESRMRMSRRIAERQRRVQQQRVSSDENISTSIRLQSIRERIQSYTPDIRSAFHRAESLHEFRSILQNVAPITLQECEEELMALFTEFRNQLLQNWAIDRVRNTQEEALRLHREALERQERTAGRVFHRGTLRESITNYLNFNGEDGFLSRLWSGPALSDADEERHTQNIIDMIQEREERERDVVMKNLMNKTRAQQEEFEARAASLPEGYSASFDTTPKMKLDITKNGKEETIIVTDDDLAKTLEDIPVCCLCGAELGVGIPDDFTGISQKDRGVSFEGLVSKYKFHCPYQTLARPSMLDRDLSKRTFIASCGHAFCGRCFARIDNAKKKSKMPKKKLAQLKGSAHPDNYGPKLCPADSCKKLIRSRGRLKEVYF
Take B2: the binding entry in assay [2] is reported as “binds”.
